Results from US20060062777A1.
These are yes or no findings as the source states them, for the method shown. For part of these data: Binding seen in cells or lysates may run through a third protein. Some binding calls cover weakened binding; strength is not graded here.

Sequences of proteins named here, by UniProt entry; tags and fusion partners are left off. A change or cut given only in a name is not applied to a line headed by its entry. Residues count along the entry.
UniProt P08648: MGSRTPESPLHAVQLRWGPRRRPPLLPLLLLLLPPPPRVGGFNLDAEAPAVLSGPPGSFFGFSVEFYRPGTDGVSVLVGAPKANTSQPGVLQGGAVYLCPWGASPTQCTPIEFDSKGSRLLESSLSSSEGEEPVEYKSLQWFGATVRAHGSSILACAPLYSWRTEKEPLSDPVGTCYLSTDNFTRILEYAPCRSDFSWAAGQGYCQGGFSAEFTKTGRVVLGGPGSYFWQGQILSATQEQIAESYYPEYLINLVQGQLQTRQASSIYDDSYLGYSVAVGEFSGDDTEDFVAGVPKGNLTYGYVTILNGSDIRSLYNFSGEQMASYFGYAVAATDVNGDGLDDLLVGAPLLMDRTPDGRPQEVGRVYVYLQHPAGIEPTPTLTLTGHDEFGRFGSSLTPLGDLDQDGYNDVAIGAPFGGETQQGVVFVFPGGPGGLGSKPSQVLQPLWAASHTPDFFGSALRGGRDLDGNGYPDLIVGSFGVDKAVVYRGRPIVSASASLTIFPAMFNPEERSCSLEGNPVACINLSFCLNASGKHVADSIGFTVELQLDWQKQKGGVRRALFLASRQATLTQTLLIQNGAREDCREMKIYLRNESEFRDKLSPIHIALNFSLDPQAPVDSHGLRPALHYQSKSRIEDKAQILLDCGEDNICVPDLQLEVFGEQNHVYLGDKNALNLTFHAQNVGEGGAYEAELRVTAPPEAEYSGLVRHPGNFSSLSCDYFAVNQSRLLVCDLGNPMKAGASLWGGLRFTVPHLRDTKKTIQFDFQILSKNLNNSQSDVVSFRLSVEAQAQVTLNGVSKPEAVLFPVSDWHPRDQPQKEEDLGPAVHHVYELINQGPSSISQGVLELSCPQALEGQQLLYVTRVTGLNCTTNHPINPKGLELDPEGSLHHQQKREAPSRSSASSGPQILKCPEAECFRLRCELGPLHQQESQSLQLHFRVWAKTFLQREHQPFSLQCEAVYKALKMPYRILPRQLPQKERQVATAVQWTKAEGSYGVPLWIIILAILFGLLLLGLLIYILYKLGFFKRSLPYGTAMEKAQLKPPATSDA
UniProt P05556: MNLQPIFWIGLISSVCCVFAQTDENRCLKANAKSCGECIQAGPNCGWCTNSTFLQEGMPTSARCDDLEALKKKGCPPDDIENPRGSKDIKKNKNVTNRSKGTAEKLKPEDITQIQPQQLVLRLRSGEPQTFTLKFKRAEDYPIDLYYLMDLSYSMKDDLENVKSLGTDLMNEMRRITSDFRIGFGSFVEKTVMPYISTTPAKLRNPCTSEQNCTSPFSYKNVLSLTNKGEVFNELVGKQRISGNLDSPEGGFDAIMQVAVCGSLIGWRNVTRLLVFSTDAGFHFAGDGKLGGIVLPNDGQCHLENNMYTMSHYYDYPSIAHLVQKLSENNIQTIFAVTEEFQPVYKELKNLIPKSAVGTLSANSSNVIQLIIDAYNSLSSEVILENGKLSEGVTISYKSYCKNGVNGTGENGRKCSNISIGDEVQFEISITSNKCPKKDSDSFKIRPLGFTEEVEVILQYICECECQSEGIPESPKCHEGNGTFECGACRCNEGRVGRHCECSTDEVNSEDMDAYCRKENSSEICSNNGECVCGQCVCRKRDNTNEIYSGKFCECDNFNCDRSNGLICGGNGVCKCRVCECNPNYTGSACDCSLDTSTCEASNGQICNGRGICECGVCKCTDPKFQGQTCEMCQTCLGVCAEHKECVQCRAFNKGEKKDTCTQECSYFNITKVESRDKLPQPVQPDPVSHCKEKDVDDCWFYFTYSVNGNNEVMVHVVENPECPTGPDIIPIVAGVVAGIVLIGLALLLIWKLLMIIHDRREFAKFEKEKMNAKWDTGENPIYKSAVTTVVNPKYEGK
UniProt P14780, residues 20-707: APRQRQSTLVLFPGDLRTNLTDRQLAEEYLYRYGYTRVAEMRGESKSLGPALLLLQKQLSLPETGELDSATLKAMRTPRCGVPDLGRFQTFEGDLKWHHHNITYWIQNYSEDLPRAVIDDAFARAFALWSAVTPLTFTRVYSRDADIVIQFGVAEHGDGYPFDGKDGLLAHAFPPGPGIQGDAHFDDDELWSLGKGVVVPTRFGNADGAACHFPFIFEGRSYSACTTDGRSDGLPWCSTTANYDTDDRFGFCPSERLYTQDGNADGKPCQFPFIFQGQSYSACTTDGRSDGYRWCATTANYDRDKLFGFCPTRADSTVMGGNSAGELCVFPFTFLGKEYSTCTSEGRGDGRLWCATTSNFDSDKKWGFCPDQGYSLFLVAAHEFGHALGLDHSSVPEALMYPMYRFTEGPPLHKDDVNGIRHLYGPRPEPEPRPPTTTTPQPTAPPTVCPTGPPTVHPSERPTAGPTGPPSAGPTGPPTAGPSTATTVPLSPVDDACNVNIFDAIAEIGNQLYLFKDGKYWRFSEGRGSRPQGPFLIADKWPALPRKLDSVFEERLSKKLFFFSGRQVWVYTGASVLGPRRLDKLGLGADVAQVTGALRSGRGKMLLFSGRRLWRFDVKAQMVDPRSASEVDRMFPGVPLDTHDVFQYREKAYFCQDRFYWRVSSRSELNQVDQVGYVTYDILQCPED

Key:
[1] = target: T1, integrin α5β1 purified from human placental tissue (human) (UniProt P08648+P05556); assay: summary of the examples
[2] = target: T1, integrin α5β1 purified from human placental tissue (human); assay: co-purification from placental lysates, western blot with anti-MMP-9 Mab
[3] = target: T1, integrin α5β1 purified from human placental tissue (human); assay: solid phase binding assay, α5β1 immobilized at 10 ug/ml, MMP-9 at 2 ug/ml, detected with anti-MMP-9 Mab

binding [1]: binds
binding [2]: binds
binding [3]: binds
Substance: Recombinant human MMP-9 (from UniProt P14780 20-707) (enzyme)
